Data published in the supplement of paper PMC10849652.
The other results are listed elsewhere or left out.

Amino acid sequences for entries named in this document (tags omitted). A change or cut given only in a name is not applied to a line headed by its entry.
UniProt Q13151: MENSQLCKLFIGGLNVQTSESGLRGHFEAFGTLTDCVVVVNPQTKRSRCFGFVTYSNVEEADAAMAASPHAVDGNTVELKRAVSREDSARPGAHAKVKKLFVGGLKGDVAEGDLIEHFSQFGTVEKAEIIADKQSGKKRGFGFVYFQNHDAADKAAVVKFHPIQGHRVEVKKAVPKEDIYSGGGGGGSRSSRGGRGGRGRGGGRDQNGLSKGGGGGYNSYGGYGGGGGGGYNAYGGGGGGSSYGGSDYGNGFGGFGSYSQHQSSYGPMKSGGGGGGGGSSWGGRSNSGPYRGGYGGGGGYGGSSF
UniProt P35914: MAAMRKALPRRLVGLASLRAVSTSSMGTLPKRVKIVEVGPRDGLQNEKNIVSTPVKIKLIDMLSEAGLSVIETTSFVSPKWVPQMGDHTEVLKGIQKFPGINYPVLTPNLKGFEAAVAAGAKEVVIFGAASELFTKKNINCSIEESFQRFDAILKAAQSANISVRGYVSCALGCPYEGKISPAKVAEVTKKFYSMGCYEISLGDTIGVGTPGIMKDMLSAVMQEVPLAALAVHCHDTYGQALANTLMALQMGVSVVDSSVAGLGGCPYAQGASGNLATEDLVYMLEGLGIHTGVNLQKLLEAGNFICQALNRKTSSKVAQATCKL
UniProt P00492: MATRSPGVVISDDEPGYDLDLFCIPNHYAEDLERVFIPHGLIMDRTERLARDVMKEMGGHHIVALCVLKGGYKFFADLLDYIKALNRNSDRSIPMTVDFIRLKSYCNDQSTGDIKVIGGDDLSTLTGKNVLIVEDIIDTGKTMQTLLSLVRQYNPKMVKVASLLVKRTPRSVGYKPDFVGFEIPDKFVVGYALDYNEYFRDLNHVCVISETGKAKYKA
UniProt Q58FF7, whole entry, looked up: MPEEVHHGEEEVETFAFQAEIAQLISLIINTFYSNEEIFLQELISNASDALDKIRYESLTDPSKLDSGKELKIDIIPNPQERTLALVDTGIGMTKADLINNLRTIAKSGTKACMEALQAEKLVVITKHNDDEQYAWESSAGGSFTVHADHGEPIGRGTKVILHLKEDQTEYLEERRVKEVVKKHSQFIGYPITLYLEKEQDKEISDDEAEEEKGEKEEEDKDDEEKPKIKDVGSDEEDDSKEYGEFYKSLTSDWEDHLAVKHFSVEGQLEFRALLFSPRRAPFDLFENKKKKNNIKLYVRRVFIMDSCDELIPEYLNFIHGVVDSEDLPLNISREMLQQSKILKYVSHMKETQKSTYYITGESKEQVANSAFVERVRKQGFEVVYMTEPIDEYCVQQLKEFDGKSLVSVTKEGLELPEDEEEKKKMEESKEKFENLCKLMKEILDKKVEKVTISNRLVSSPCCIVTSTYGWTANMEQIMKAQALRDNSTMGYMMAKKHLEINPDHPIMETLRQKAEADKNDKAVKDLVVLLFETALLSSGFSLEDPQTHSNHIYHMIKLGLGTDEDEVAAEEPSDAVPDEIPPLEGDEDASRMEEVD
UniProt Q8WVV9: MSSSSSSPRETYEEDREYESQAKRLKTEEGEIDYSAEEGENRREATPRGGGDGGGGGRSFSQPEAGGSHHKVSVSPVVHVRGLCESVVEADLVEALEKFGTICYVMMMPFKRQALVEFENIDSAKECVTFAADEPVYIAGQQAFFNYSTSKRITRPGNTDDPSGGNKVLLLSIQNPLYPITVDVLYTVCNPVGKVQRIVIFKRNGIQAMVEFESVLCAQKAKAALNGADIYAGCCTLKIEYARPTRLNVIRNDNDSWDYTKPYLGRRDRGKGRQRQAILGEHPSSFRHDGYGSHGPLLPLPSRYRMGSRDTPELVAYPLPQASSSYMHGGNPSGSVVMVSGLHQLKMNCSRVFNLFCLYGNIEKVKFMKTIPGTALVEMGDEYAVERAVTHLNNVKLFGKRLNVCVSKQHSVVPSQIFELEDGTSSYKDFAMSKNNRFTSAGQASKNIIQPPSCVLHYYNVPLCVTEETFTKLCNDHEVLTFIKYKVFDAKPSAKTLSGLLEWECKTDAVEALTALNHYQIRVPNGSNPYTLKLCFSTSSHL
UniProt P17066, whole entry, looked up: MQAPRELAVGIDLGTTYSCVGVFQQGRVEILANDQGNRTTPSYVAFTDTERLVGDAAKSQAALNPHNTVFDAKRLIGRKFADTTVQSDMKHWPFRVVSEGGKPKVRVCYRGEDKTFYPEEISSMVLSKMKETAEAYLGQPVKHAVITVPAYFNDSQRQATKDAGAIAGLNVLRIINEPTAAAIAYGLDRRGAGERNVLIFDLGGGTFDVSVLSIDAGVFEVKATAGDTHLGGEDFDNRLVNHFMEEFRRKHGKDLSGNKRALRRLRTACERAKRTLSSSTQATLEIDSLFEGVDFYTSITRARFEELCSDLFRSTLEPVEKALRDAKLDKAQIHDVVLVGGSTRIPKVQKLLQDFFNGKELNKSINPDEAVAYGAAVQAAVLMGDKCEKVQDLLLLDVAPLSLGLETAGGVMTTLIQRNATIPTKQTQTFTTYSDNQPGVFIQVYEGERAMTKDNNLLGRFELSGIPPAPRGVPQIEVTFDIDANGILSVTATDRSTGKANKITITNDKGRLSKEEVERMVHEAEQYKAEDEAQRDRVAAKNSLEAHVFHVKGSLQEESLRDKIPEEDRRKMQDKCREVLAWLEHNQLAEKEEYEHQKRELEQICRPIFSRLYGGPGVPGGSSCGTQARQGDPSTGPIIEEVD
UniProt Q96JB3: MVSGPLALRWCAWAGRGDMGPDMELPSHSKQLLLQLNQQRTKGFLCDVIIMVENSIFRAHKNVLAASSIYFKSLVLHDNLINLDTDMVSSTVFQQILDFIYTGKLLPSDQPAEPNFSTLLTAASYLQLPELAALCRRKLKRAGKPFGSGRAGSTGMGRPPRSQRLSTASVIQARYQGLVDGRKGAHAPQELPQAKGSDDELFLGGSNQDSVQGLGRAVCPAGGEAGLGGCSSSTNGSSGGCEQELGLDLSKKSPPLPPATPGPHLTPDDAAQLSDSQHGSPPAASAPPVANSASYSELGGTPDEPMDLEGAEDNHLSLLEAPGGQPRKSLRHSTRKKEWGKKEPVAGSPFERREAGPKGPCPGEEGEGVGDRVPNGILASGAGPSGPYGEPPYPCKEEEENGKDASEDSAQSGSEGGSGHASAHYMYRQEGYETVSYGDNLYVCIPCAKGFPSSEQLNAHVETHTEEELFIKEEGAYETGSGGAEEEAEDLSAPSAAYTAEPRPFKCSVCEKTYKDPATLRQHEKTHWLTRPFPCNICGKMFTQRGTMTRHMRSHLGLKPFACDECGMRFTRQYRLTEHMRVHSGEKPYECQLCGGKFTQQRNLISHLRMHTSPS

Assays:
Assay in all cases: log2 fold change, soluble protein after heating vs DMSO (PISA); higher = thermal stabilisation; K562 lysate, 10 uM; active = over 0.2 and 3.5 SD of the protein, either way, in both replicates (recomputed)
vemurafenib = compound: CCCS(=O)(=O)Nc1ccc(F)c(C(=O)c2c[nH]c3ncc(-c4ccc(Cl)cc4)cc23)c1F [vemurafenib]
In short: (§1)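 Dounce homogenisation of K562 pellets in PBS pH 7.4 with 1 mM MgCl2 produced a crude extract, used at 1 mg/mL protein. Exposure to 10 μM compound lasted 30 min, and aliquots were then heated for 3 min across 48°C-58°C, pooled and brought to 0.5% NP-40 at 4°C. The supernatant after 21,000xg for 90 min was quantified by TMTpro 16plex LC-MS/MS with channel sums equalised. Duplicate values are given as log-two fold change in thermal stability relative to solvent controls.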

[1] = compound: CCCS(=O)(=O)Nc1ccc(F)c(C(=O)c2c[nH]c3ncc(Cl)cc23)c1F
In short: as §1

barasertib = compound: CCN(CCCOc1ccc2c(Nc3cc(CC(=O)Nc4cccc(F)c4)[nH]n3)ncnc2c1)CCOP(=O)(O)O [barasertib]
In short: as §1

[2] = compound: CC[C@@H]1C(=O)N(C)c2cnc(Nc3ccc(C(=O)NC4CCN(C)CC4)cc3OC)nc2N1C1CCCC1
In short: as §1

volasertib = compound: CC[C@@H]1C(=O)N(C)c2cnc(Nc3ccc(C(=O)N[C@H]4CC[C@H](N5CCN(CC6CC6)CC5)CC4)cc3OC)nc2N1C(C)C [volasertib]
In short: as §1

[3] = compound: CCn1c(C(=O)N(C2CC2)C2CC2)cc2c3c(ncn3C)c(Nc3cc(C)n(C)n3)nc21
In short: as §1

[4] = compound: CCn1cc(-c2ccnc3[nH]c(-c4cccc(CN(C)C)c4)cc23)c(-c2ccc(NC(=O)N(C)C)cc2)n1
In short: as §1

[5] = compound: CN1CCC(CNc2ccc3ncc(-c4cccc(OC(F)(F)F)c4)n3n2)CC1
In short: as §1

saracatinib = compound: CN1CCN(CCOc2cc(OC3CCOCC3)c3c(Nc4c(Cl)ccc5c4OCO5)ncnc3c2)CC1 [saracatinib]
In short: as §1

sotrastaurin = compound: CN1CCN(c2nc(C3=C(c4c[nH]c5ccccc45)C(=O)NC3=O)c3ccccc3n2)CC1 [sotrastaurin]
In short: as §1

alvocidib = compound: CN1CC[C@H](c2c(O)cc(O)c3c(=O)cc(-c4ccccc4Cl)oc23)[C@H](O)C1 [alvocidib]
In short: as §1

Tubastatin A = compound: CN1CCc2c(c3ccccc3n2Cc2ccc(C(=O)NO)cc2)C1 [Tubastatin A]
In short: as §1

[6] = compound: CNC(=O)C1=CC=CC=C1NC2=NC(=NC=C2Cl)NC3=C(C=C(C=C3)N4CCOCC4)OC
In short: as §1

defactinib = compound: CNC(=O)c1ccc(Nc2ncc(C(F)(F)F)c(NCc3nccnc3N(C)S(C)(=O)=O)n2)cc1 [defactinib]
In short: as §1

[7] = compound: CNc1nc(-c2ccc3c(N)n[nH]c3c2)cc(N2C[C@@H](C(=O)NC3CCCCC3)CC[C@H]2C)n1
In short: as §1

encorafenib = compound: COC(=O)N[C@@H](C)CNc1nccc(-c2cn(C(C)C)nc2-c2cc(Cl)cc(NS(C)(=O)=O)c2F)n1 [encorafenib]
In short: as §1

[8] = compound: COC(=O)[C@H](CCSC)NC(=O)C1=C(C=C(C=C1)NC[C@H](CS)N)C2=CC=CC=C2
In short: as §1

alisertib = compound: COc1cc(Nc2ncc3c(n2)-c2ccc(Cl)cc2C(c2c(F)cccc2OC)=NC3)ccc1C(=O)O [alisertib]
In short: as §1

[9] = compound: COc1cc2nc(-c3cc(F)ccc3O)nc(N[C@@H]3CNC[C@H]3C(C)(C)O)c2cc1OC
In short: as §1

gefitinib = compound: COc1cc2ncnc(Nc3ccc(F)c(Cl)c3)c2cc1OCCCN1CCOCC1 [gefitinib]
In short: as §1

Measured: log2 fold change

HNRNPA0 (UniProt Q13151)
inactive: vemurafenib 0.015 | [1] 0.045 | barasertib -0.057 | [2] 0.025 | volasertib -0.04 | [3] -0.003 | [4] 0.102 | [5] -0.086 | saracatinib 0.101 | sotrastaurin 0.051 | alvocidib -0.031 | Tubastatin A -0.1 | [6] 0.094 | defactinib -0.009 | [7] 0.023 | encorafenib 0.065 | [8] 0.022 | alisertib 0.005 | [9] -0.018 | gefitinib -0.077

HERC2 (UniProt O95714)
active: Tubastatin A -0.316
inactive: vemurafenib 0.034 | [1] 0.004 | barasertib 0.038 | [2] -0.038 | volasertib -0.01 | [3] 0.039 | [4] 0.032 | [5] -0.021 | saracatinib 0.037 | sotrastaurin 0.047 | alvocidib -0.075 | [6] -0.109 | defactinib -0.085 | [7] -0.077 | encorafenib 0.027 | [8] 0.111 | alisertib -0.007 | [9] 0.005 | gefitinib 0.004

HMGCL (UniProt P35914)
inactive: vemurafenib -0.017 | [1] 0.01 | barasertib 0.027 | [2] 0.037 | volasertib 0.014 | [3] 0.037 | [4] 0.05 | [5] -0.02 | saracatinib -0.013 | sotrastaurin -0.01 | alvocidib 0.013 | Tubastatin A -0.012 | [6] -0.015 | defactinib 0.059 | [7] 0.055 | encorafenib 0.032 | [8] -0.102 | alisertib -0.031 | [9] -0.016 | gefitinib -0.021

HPRT1 (UniProt P00492)
inactive: vemurafenib 0.004 | [1] 0.009 | barasertib -0.064 | [2] 0.02 | volasertib 0.014 | [3] 0.002 | [4] -0.056 | [5] 0.032 | saracatinib -0.008 | sotrastaurin -0.016 | alvocidib 0.019 | Tubastatin A 0.023 | [6] -0.018 | defactinib -0.012 | [7] -0.08 | encorafenib -0.005 | [8] -0.062 | alisertib 0.013 | [9] -0.03 | gefitinib 0.035

HSP90AB3P (UniProt Q58FF7)
inactive: vemurafenib -0.019 | [1] 0.043 | barasertib -0.006 | [2] 0.034 | volasertib 0.003 | [3] 0.021 | [4] 0.023 | [5] -0.021 | saracatinib -0.079 | sotrastaurin -0.012 | alvocidib 0.096 | Tubastatin A -0.024 | [6] -0.041 | defactinib -0.011 | [7] -0.055 | encorafenib 0.03 | [8] 0.038 | alisertib -0.014 | [9] -0.022 | gefitinib -0.092

HNRNPLL (UniProt Q8WVV9)
inactive: vemurafenib 0.004 | [1] 0.046 | barasertib 0.018 | [2] 0.008 | volasertib -0.027 | [3] -0.004 | [4] -0.006 | [5] -0.013 | saracatinib -0.001 | sotrastaurin 0.034 | alvocidib 0.015 | Tubastatin A -0.164 | [6] 0.021 | defactinib 0.035 | [7] -0.016 | encorafenib 0.082 | [8] -0.07 | alisertib -0.016 | [9] 0.011 | gefitinib -0.052

HSPA6 (UniProt P17066)
inactive: vemurafenib -0.006 | [1] 0.017 | barasertib -0.03 | [2] 0.05 | volasertib -0.06 | [3] -0.053 | [4] -0.085 | [5] 0.051 | saracatinib -0.712 | sotrastaurin 0.027 | alvocidib -0.045 | Tubastatin A 0.033 | [6] -0.022 | defactinib -0.025 | [7] -0.69 | encorafenib -0.003 | [8] 0.033 | alisertib 0.001 | [9] 0.017 | gefitinib -0.011

HIC2 (UniProt Q96JB3)
inactive: vemurafenib 0.043 | [1] 0.023 | barasertib -0.063 | [2] 0.03 | volasertib 0.006 | [3] -0.022 | [4] -0.103 | [5] 0.019 | saracatinib -0.067 | sotrastaurin -0.043 | alvocidib -0.051 | Tubastatin A -0.026 | [6] 0.035 | defactinib -0.027 | [7] -0.032 | encorafenib 0.028 | [8] -0.048 | alisertib 0.037 | [9] 0.001 | gefitinib -0.044
